Test results published in the supplement of paper PMC10849652.
The other results are listed elsewhere or left out.

Chains of the proteins cited; added tags and fusions are not shown. Lines headed by an entry give the natural chain unless they say otherwise; changes in a name come on top.
UniProt P17275: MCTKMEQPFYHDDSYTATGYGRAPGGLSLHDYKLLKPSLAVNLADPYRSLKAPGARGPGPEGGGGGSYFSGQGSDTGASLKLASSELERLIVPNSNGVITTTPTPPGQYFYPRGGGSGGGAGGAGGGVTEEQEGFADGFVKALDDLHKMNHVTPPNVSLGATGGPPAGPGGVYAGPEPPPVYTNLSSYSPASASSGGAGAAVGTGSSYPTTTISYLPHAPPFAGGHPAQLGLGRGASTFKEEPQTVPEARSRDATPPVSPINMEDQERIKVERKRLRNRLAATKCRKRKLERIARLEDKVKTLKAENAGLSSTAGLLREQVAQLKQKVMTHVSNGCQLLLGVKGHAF
UniProt P23458: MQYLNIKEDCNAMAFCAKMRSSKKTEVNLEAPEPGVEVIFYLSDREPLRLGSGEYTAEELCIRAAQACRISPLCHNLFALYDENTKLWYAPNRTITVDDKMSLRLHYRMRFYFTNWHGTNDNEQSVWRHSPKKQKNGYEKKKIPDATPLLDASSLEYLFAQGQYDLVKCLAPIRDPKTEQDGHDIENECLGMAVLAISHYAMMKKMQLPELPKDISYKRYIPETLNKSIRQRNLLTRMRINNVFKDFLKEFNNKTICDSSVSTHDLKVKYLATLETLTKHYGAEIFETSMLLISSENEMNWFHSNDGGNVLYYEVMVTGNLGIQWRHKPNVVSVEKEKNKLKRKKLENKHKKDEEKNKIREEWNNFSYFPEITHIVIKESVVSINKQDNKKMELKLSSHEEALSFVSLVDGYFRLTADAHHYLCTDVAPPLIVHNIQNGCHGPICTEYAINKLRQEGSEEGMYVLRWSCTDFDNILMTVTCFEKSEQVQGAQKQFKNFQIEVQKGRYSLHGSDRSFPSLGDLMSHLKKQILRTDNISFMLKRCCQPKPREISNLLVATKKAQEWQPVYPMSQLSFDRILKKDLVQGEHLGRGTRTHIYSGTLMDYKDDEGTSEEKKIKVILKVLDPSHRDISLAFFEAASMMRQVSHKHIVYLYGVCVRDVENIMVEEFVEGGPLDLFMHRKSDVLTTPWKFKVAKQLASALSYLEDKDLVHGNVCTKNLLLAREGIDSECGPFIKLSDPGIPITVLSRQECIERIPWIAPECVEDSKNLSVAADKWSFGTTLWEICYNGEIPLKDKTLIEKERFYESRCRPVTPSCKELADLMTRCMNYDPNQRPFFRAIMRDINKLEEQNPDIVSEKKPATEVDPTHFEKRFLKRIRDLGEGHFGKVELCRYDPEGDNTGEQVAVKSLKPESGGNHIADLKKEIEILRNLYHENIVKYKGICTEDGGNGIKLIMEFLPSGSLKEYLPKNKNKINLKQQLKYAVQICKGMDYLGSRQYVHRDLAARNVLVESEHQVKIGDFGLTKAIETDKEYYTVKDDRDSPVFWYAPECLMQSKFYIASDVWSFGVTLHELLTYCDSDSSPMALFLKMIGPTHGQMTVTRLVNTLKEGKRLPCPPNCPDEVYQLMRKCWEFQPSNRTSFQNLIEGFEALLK
UniProt P0C870: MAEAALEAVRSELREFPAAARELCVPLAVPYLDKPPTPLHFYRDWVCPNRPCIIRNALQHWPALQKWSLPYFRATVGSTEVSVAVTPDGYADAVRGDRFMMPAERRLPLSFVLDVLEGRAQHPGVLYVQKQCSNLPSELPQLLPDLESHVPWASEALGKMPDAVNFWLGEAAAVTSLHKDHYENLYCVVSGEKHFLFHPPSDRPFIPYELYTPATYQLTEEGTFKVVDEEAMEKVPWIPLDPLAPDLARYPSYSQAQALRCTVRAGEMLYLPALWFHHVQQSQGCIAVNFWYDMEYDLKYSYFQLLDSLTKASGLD
UniProt Q8N9B5, whole entry, looked up: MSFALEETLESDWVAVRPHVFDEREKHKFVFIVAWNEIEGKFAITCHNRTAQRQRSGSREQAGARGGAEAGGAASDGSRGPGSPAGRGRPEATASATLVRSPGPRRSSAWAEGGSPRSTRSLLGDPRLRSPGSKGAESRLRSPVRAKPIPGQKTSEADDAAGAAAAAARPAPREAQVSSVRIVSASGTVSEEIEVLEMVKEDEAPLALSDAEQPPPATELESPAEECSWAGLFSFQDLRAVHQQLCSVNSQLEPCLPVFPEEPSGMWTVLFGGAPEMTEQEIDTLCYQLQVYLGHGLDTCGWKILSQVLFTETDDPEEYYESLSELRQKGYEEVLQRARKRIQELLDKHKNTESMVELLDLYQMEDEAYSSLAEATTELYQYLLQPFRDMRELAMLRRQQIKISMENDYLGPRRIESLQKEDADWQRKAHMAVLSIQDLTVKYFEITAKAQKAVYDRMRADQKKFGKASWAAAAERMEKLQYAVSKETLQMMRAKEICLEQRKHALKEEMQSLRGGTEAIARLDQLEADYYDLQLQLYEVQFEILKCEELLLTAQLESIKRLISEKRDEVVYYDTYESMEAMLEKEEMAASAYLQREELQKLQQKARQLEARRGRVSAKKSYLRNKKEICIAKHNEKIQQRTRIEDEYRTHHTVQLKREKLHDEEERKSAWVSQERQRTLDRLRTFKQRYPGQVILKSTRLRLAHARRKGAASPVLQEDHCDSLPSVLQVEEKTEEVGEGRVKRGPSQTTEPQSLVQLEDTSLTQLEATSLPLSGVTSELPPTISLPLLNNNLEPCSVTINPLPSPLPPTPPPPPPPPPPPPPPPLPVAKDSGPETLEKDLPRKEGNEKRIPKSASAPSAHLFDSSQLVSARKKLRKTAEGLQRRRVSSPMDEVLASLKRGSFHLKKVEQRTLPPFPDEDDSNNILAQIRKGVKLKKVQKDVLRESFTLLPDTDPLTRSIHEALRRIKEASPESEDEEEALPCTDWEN
UniProt Q06033: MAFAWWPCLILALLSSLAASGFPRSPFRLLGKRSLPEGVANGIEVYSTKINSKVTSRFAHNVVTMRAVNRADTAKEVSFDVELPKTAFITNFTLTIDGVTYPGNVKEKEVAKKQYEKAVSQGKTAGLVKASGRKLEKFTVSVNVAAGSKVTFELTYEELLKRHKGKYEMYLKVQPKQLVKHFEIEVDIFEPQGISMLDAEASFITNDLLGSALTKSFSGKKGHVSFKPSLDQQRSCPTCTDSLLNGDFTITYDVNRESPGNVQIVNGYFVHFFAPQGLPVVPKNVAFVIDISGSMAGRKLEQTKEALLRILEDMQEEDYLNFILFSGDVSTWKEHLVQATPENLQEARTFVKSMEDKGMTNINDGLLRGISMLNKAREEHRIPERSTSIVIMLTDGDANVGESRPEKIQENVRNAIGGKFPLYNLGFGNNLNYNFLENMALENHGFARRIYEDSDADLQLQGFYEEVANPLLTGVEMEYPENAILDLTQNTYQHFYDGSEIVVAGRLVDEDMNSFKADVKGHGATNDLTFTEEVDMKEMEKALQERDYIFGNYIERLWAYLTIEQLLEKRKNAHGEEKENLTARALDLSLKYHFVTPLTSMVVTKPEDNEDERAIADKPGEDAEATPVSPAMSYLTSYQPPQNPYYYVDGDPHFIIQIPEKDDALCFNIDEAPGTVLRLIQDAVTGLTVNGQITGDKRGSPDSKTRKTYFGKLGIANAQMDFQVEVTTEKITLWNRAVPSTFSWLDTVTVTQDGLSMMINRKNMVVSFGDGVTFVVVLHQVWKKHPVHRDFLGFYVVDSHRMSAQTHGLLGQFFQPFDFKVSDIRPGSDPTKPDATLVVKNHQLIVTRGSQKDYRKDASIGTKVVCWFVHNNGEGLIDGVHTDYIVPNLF
UniProt Q9UKP3: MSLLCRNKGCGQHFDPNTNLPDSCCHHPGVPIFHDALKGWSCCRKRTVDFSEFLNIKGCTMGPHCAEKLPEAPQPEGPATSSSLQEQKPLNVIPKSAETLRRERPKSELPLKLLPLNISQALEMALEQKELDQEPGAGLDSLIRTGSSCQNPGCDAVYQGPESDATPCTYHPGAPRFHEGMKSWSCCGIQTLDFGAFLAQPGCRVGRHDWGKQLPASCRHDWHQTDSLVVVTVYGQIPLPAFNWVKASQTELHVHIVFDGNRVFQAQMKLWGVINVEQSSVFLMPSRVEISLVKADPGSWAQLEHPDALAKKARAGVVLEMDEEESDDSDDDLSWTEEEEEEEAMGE
UniProt Q92830, whole entry, looked up: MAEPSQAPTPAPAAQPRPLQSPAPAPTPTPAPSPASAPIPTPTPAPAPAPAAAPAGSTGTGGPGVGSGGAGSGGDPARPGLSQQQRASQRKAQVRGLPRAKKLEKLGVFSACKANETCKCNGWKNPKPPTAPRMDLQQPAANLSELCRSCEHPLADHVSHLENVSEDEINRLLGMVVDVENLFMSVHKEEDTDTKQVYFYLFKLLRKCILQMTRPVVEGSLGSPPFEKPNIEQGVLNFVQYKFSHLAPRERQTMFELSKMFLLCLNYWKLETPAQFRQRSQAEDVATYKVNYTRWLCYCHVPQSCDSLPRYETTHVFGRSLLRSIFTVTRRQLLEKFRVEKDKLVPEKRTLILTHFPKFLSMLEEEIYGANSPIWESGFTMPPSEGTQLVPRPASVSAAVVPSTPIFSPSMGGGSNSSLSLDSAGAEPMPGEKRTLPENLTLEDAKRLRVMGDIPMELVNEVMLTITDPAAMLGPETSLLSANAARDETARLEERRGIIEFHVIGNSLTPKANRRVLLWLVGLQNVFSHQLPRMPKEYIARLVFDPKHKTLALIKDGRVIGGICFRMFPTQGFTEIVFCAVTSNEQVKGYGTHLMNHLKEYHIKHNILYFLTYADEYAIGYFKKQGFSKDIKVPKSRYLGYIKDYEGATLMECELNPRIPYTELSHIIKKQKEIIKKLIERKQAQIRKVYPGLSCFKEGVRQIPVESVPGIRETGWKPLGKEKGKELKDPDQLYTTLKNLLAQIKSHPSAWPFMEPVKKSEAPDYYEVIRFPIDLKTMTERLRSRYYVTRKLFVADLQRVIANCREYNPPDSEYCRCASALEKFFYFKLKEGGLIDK
UniProt Q96AZ6: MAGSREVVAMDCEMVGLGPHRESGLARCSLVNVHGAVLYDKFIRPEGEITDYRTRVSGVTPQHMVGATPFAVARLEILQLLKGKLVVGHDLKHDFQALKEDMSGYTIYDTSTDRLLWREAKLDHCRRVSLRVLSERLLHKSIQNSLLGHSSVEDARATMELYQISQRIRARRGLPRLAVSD
UniProt Q9H9L4: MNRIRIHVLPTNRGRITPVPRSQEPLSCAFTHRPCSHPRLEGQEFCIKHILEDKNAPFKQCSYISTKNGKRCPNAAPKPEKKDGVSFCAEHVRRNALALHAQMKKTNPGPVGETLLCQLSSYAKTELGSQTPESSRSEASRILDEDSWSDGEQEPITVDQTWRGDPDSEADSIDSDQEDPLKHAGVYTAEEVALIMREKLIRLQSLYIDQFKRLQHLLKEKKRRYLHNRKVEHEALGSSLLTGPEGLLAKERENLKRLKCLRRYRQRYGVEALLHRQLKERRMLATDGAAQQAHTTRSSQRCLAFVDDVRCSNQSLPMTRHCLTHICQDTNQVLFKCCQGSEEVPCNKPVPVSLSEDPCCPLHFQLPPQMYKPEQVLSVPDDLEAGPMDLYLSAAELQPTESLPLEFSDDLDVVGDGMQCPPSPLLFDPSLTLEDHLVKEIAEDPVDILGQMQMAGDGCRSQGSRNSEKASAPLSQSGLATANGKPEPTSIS
UniProt Q5JSJ4, whole entry, looked up: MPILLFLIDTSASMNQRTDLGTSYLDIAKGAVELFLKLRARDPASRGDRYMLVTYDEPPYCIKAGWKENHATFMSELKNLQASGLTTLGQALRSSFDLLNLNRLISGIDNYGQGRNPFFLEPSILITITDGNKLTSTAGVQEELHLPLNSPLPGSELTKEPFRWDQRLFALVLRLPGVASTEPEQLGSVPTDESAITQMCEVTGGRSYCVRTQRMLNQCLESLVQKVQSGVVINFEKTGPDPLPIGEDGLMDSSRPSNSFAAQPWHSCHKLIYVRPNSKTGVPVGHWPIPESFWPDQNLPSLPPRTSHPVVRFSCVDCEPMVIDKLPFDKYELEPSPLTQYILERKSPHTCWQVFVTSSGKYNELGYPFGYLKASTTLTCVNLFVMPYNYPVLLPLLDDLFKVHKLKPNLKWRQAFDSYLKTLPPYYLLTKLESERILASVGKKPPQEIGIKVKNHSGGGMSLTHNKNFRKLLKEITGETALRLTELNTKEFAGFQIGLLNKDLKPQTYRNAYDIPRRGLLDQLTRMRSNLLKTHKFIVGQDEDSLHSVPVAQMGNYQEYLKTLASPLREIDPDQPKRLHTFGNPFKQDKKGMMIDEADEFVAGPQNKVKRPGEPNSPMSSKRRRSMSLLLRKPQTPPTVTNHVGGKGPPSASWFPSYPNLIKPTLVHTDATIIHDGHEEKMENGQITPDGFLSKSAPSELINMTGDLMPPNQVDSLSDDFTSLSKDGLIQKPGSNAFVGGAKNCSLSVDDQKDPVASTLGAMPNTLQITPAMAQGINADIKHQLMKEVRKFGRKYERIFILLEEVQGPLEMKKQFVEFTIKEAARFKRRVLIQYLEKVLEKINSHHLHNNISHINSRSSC

Tests used:
Assay in all cases: log2 fold change, soluble protein after heating vs DMSO (PISA); higher = thermal stabilisation; K562 lysate, 10 uM; active = over 0.2 and 3.5 SD of the protein, either way, in both replicates (recomputed)
[1] = compound: O=C(CCCCCCC(=O)Nc1ccccc1)NO [vorinostat]
Outline: (§1)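 To prepare the extract, K562 pellets were dounce-homogenised in PBS pH 7.4 with 1 mM MgCl2, giving crude material at 1 mg/mL protein. This was treated with 10 μM compound for 30 min, then heated in aliquots for 3 min over 48°C-58°C before pooling and addition of NP-40 to 0.5% at 4°C. Centrifugation at 21,000xg for 90 min left soluble protein in the supernatant, which TMTpro 16plex LC-MS/MS quantified with equalised channel sums. Results are log-two fold changes in thermal stability compared with solvent controls, from duplicates.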

[2] = compound: O=C(O)c1ccc2c(c1)nc(Nc1cccc(Cl)c1)c1ccncc12 [silmitasertib]
Outline: as §1

[3] = compound: O=C1NC(=O)C(c2cnc3ccccn23)=C1c1cn2c3c(cc(F)cc13)CN(C(=O)N1CCCCC1)CC2
Outline: as §1

[4] = compound: NCC(=O)Nc1ccc(-n2nc(C(F)(F)F)cc2-c2ccc3c(ccc4ccccc43)c2)cc1
Outline: as §1

[5] = compound: c1cn2cc(-c3ccc4cn[nH]c4c3)nc(Nc3ccc(N4CCOCC4)cc3)c2n1 [entospletinib]
Outline: as §1

Row | Target | log2 fold change [1] | log2 fold change [2] | log2 fold change [3] | log2 fold change [4] | log2 fold change [5]
1 | ITPR2 (UniProt Q14571) | active: -0.965 | inactive: 0.024 |  |  | 
2 | JUNB (UniProt P17275) |  |  | inactive: -0.086 |  | 
3 | JAK1 (UniProt P23458) |  |  | inactive: 0.032 | inactive: -0.004 | inactive: -0.02
4 | JMJD7 (UniProt P0C870) | inactive: 0.262 | inactive: -0.014 |  |  | inactive: -0.235
5 | ITPR3 (UniProt Q14573) | inactive: 0.297 | inactive: -0.277 | inactive: 0.009 |  | 
6 | JMY (UniProt Q8N9B5) | inactive: 0.345 | inactive: 0.398 | inactive: 0 |  | 
7 | KCTD2 (UniProt Q14681) |  |  | inactive: -0.056 | inactive: 0.185 | inactive: -0.225
8 | KANK2 isoform 2 (UniProt Q63ZY3) |  |  |  | inactive: 0.089 | inactive: 0.208
9 | ITIH3 (UniProt Q06033) | inactive: 0.203 | inactive: -0.054 |  |  | inactive: -0.033
10 | ITGB1BP2 (UniProt Q9UKP3) |  |  |  | inactive: 0.053 | inactive: 0.107
11 | KAT2A (UniProt Q92830) |  |  | inactive: 0.045 |  | inactive: -0.023
12 | ISG20 (UniProt Q96AZ6) | inactive: 0.106 | inactive: -0.037 |  |  | 
13 | KANSL2 (UniProt Q9H9L4) | inactive: -0.091 | inactive: -0.204 | inactive: 0.089 |  | 
14 | IRS2 (UniProt Q9Y4H2) | inactive: -0.034 | inactive: -0.065 | inactive: 0.14 |  | 
15 | JUN (UniProt P05412) | inactive: 0.028 | inactive: -0.05 | inactive: 0.023 |  | inactive: -0.105
16 | ITPRID2 (UniProt P28290) | inactive: -0.049 | inactive: 0 |  |  | inactive: 0.05
17 | JOSD1 (UniProt Q15040) | inactive: -0.191 | inactive: 0.15 |  |  | 
18 | ISL2 (UniProt Q96A47) | inactive: -0.026 | inactive: 0.04 | inactive: 0.179 |  | 
19 | INTS6L (UniProt Q5JSJ4) | inactive: -0.01 | inactive: 0.003 |  |  | 

Nos. 4 through 7, quoted:
Row | Target | log2 fold change [1] | log2 fold change [2] | log2 fold change [3] | log2 fold change [4] | log2 fold change [5]
4 | JMJD7 (UniProt P0C870) | inactive: 0.262 | inactive: -0.014 |  |  | inactive: -0.235
5 | ITPR3 (UniProt Q14573) | inactive: 0.297 | inactive: -0.277 | inactive: 0.009 |  | 
6 | JMY (UniProt Q8N9B5) | inactive: 0.345 | inactive: 0.398 | inactive: 0 |  | 
7 | KCTD2 (UniProt Q14681) |  |  | inactive: -0.056 | inactive: 0.185 | inactive: -0.225
